Results on three molecules are retold here after PMC11792487.

Amino acid sequences for entries named in this document (tags omitted).
UniProt Q8NL22: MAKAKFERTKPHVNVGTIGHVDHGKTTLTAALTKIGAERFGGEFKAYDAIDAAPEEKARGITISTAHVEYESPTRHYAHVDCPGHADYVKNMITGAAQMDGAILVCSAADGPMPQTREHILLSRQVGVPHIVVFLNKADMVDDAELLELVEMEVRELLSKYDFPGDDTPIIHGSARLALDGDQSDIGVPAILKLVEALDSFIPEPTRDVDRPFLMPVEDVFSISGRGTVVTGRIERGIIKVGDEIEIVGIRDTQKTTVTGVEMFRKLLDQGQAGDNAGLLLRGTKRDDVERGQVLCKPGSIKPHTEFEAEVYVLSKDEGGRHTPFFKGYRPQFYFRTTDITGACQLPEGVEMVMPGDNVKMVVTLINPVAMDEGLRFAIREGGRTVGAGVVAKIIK

These are yes or no findings as the source states them, for the method shown. Binding seen in cells or lysates may run through a third protein. These calls come from enrichment with a bait or labelling near it, and not all partners need be listed. Where a sequence is shown, tags or fusion partners need not be part of it.

B1: membrane periplasmic TolB (XAC3142), endogenous in Xcc total proteins (protein, UniProt Q8PHV7 23-439)
chain: QQQGLTIDIVGGSASATPIAVIPMPYQGSGTAPQTDVSAVVGADLDRSGQFRTLPAAQIVEKPTRGTEVQFQTWRTLKQNYIVVGRVMDAGEGAYRVEYELFDVAKGERMLGLAMTARANAMRDVSHQMADAIYEKITGVRGAFWTRIAYVTASGKGGAMRYALMVADSDGYNPQTIVRSAEPLLSPNWSPDGKKLAYVSFERGNSSIYLQDIATGARELVSSFRGINGAPSFSPDGRRLALALSRSGNPEIYVMDLGSKQLTQLTNHFGIDTEPTWAPDGGSIYFTSDRGGRPQIYQVAASGGSANRVTFQGNYNATASVSFDGKKIAVAQGSGNTYRIAMMDRSLGSPSWSTLSPGSLDESPSFAPNASMVLYAAREGGRGVLYAVSSDARVRQRLVLADGDVREPAWGPYRTAH
B2: phosphoglucosamine mutase (XAC2714), endogenous in Xcc total proteins (enzyme, UniProt Q8PJ31 1-449)
chain: MSARKYFGTDGIRGRVGQGVISADFVLRLGNALGRVLTQGRSKRPLVLIGKDTRISGYMFEAALEAGLVAAGADVQLIGPMPTPAIAFLTSTLRADAGVVISASHNPHYDNGIKFFSAEGEKLDDATEAAIEAALDEPFHTVESERLGKAIRTRDAIGRYIEFCKASVARGFTLHGLKMVLDCAHGATYHIAPMLFRELGAEVVVIGAAPDGLNINAGVGSTHIDNLAAKVRECGAHLGIAFDGDGDRVLMADDQGNPVDGDDLLYVLARSWQASGRLTGTVVGTLMTNYGLEQALAALHIPFQRAKVGDRYVHQALVEGGGTLGGETSGHLLCLDRASTGDGIVSALQVLEALGRDRQSLRDALTSLSKVPQKTVNVRLDGGAAKAIVEAANVQQALQQAQAAVRGRGRAFLRPSGTEPVVRVTVEADDAGLMQDTLDRLSGAVRDAA

In the assay the target is GST-OMPXan (Xanthomonas-specific outer membrane protein XAC1347 fused with GST) (Xanthomonas citri subsp. citri). The experiment in a line: affinity purification with mass spectrometry; only the target purified.
As to “elongation factor Tu (XAC0957 and XAC0970), endogenous in Xcc total proteins (from UniProt Q8NL22 1-396)”, the binding result was “binds”. As to B1, the binding entry is reported as “binds”. Take B2: the binding entry is given as “binds”.
